Data taken from paper doi:10.1101/2025.09.22.677689.

Protein sequences, listed by entry. Tags and fused reporters are not part of them.
UniProt O88271: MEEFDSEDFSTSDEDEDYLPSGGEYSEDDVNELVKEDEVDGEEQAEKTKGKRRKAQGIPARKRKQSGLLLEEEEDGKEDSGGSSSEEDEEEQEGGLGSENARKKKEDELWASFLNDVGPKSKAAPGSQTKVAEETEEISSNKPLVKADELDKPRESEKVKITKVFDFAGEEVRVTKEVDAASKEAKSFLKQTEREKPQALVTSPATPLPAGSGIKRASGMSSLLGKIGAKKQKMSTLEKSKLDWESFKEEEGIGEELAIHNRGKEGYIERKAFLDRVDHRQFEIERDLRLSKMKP
UniProt P28740: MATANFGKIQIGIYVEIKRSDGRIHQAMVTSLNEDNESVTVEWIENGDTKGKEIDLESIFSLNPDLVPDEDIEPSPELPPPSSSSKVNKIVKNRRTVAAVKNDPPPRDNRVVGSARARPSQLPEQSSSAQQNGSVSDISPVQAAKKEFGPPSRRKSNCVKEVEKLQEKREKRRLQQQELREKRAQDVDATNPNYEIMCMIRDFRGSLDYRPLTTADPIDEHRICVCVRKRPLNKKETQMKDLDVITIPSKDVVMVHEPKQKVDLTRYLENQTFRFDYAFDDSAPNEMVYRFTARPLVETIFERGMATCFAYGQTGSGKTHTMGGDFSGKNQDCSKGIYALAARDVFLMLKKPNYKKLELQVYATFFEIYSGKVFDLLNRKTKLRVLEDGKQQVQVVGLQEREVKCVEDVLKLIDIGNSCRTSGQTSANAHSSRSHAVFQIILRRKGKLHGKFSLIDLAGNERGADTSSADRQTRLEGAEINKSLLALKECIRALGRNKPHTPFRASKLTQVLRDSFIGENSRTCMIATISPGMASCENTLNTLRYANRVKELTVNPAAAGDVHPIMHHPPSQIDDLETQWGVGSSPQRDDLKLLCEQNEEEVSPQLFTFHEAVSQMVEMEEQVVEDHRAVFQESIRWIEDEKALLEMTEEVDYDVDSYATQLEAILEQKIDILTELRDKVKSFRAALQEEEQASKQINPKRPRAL

Target: 3xFLAG tagged CFDP1 (mouse), stably expressed in NIH3T3 cells (mouse) (UniProt O88271)
Experiment: affinity purification with mass spectrometry; FLAG M2 magnetic beads, nuclear extracts of NIH3T3 cells stably expressing 3X FLAG-CFDP1, ~16 h at 4°C, elution with 3X FLAG peptide

| binding | Molecule |
| --- | --- |
| binds | Kif2a (endogenous, NIH3T3) (from UniProt P28740 1-705) |
| binds | TPX2 (endogenous, NIH3T3) (from UniProt A2APB8 1-745) |
| binds | RCC1 (endogenous, NIH3T3) (protein, UniProt Q8VE37 1-421) MPPKRIAKRRSPPEDAIPKSKKVKVSHRSHNTEPGLVLTLGQGDVGQLGLGESVLERKKPALVPLLQDVVQAEAGGMHTVCLSQSGQVYSFGCNDEGALGRDTSVEGSEMVPGKVELQEKVVQVSAGDSHTAALTEDGRVFLWGSFRDNNGVIGLLEPMKKSMVPVQVQLDAPVVKVASGNDHLVMLTNDGDLYTLGCGEQGQLGRVPELFANRGGRQGLGRLLVPRCVLLKSRGTRGRVRFQDAFCGAYFTFAISREGHVYGFGLSNYHQLGTPGTGSCFIPQNLTSFKNSTKSWVGFSGGQHHTVCMDSEGKAYSLGRAEYGRLGLGEGAEEKSIPTLISRLPVVSSVACGASVGYAVSKDGRVFAWGMGTNYQLGTGQDEDAWSPVEMTGKQLENRVVLTVSSGGQHTVLLVKDQAQS |
| binds | Kif2c/MCAK (endogenous, NIH3T3) (protein, UniProt Q922S8 1-721) MESLHARLFPGLSINIQRSNGLIHPANISTVNVEKSCVSVEWIEGGTTKGKEIDIDDVAAINPELLQLLPLRPKDSLPLQENVTVPKQKRKSVNSKIPALKEGLRSRSTRMSTVSEVRIPAQENEMEVELPVPTNSRKQFAIPSHPRASCSTVTELPLLMVSEEAEEQAHSTRSTSSANPGNSVRRKSCIVKEMEKMKNKREEKRAQNSELRIKRAQEYDSSFPNWEFARMIKEFRVTMECSPLTVTDPIEEHRICVCVRKRPLNKQELAKKEIDVISVPSKCLLLVHEPKLKVDLTKYLENQAFCFDFAFDETASNEVVYRFTARPLVQTIFEGGKATCFAYGQTGSGKTHTMGGDLSGKSQNASKGIYAMASRDVFLLKNQPRYRNLNLEVYVTFFEIYNGKVFDLLNKKAKLRVLEDSRQQVQVVGLQEYLVTCADDVIKMINMGSACRTSGQTFANSNSSRSHACFQILLRTKGRLHGKFSLVDLAGNERGADTSSADRQTRMEGAEINKSLLALKECIRALGQNKAHTPFRESKLTQVLRDSFIGENSRTCMIAMISPGISSCEYTLNTLRYADRVKELSPHSGPSGEQPVQMETEVMEASSNGTSLTGNEEEELSSQMSSFNEAMTQIRELEERALEELREIIQQGPNWLELSEMTDQPDYDLETFVNKAESALTQQAKQAKHFSALREVIKALRLAMQLEEQASKQINSKKRHQ |

These are yes or no findings as the source states them, for the method shown. Binding seen in cells or lysates may run through a third protein. A yes stands for co-enrichment or nearness to the bait. Other partners may have been found.
